PubChem BioAssay AID1224828 | NIAID – 2016
Shown is one part, drawn at random, of about 17,000 reagents. 762 of all reagents (4.5%) count as active. 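Active calls include both raised and lowered p65 entry, mostly lowered; wells with fewer than 50 cells lack a z-score.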 Raw values are not corrected between plates.

Assay: 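Find genes required for NF-kappaB p65 moving into the nucleus after LPS in mouse macrophages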 (primary screen)
Cell system: mouse RAW264.7 G9 macrophage reporter cells (GFP-p65, Tnf promoter-mCherry)
Reagent: siRNA pool against mouse genes, 100 nM
Duration: 2 days siRNA transfection, then 40 min LPS before fixation
Challenge: LPS (Salmonella minnesota R595) at 10 ng/ml
Measurement: 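Microscopy ratio of nuclear to perinuclear-ring GFP-p65 signal, scaled to the plate median; gene score is the average of two replicate robust z-scores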
Direction: p65 translocation robust z-score: higher = more nuclear NF-kappaB p65 after LPS than the plate median; nuclear/cytoplasmic p65 ratio: higher = more nuclear NF-kappaB p65
Rule for the call: 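Active if robust z is above 3.3 (negative regulators) or below -1.56, the Tlr4 control median (positive regulators); activity score 50 or more; control wells not called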
Calls: active = hit (p65 shift raised or lowered); inactive = no clear change

no.	Target gene	p65 translocation robust z-score	nuclear/cytoplasmic p65 ratio, rep 1	nuclear/cytoplasmic p65 ratio, rep 2	low cell count flag	call
1	Dach2 (GeneID 93837)		1.49	1.24	fewer than 50 cells per well; well left out of scoring	inactive
2	Agrp (GeneID 11604)	-0.6	1.54	1.52	enough cells to score	inactive
3	Olfm1 (GeneID 56177)		1.56	1.64	fewer than 50 cells per well; well left out of scoring	inactive
4	Mrpl45 (GeneID 67036)	1.23	2	1.76	enough cells to score	inactive
5	Daam1 (GeneID 208846)	-0.07	1.55	1.28	enough cells to score	inactive
6	Slc37a1 (GeneID 224674)		1.77	1.03	fewer than 50 cells per well; well left out of scoring	inactive
7	Sirpb1a (GeneID 320832)	-1.02	1.43	1.49	enough cells to score	inactive
8	Aqp9 (GeneID 64008)	0.52	1.74	1.65	enough cells to score	inactive
9	Tmeff2 (GeneID 56363)	-0.14	1.35	1.25	enough cells to score	inactive
10	Tcf3 (GeneID 21423)	0.23	1.58	1.52	enough cells to score	inactive
11	Tulp3 (GeneID 22158)		1.27	1.29	fewer than 50 cells per well; well left out of scoring	inactive
12	Pcdhga9 (GeneID 93717)		1.32	1.12	fewer than 50 cells per well; well left out of scoring	inactive
13	Map4k3 (GeneID 225028)	1.72	1.96	1.48	enough cells to score	inactive
14	Strip1 (GeneID 229707)		1.37	1.27	fewer than 50 cells per well; well left out of scoring	inactive
15	Glrb (GeneID 14658)	0.32	1.45	1.52	enough cells to score	inactive

Reformatted: 2 of the entries above
Target gene	p65 translocation robust z-score	nuclear/cytoplasmic p65 ratio, rep 1	nuclear/cytoplasmic p65 ratio, rep 2	low cell count flag	call
Strip1 (GeneID 229707)		1.37	1.27	fewer than 50 cells per well; well left out of scoring	inactive
Glrb (GeneID 14658)	0.32	1.45	1.52	enough cells to score	inactive

Further entries:
no.	Target gene	p65 translocation robust z-score	nuclear/cytoplasmic p65 ratio, rep 1	nuclear/cytoplasmic p65 ratio, rep 2	low cell count flag	call
16	Frmd8 (GeneID 67457)		1.63	1.24	fewer than 50 cells per well; well left out of scoring	inactive
17	Myt1l (GeneID 17933)	-0.06	1.47	1.3	enough cells to score	inactive
18	Imp4 (GeneID 27993)	1.23	1.76	1.72	enough cells to score	inactive
19	Tmprss11e (GeneID 243084)	0.11	1.76	1.5	enough cells to score	inactive
20	Glmn (GeneID 170823)	-0.37	1.46	1.49	enough cells to score	inactive
21	Prss22 (GeneID 70835)	1.45	1.56	1.35	enough cells to score	inactive
22	Npy1r (GeneID 18166)	3.56	1.74	2.39	enough cells to score	active
23	Rcbtb2 (GeneID 105670)	-0.21	1.4	1.39	enough cells to score	inactive
24	Ube2v2 (GeneID 70620)	0.59	1.44	1.73	enough cells to score	inactive
